Data as given in PubChem BioAssay AID686943 (Drosophila RNAi Screening Center, 2013).
In all, the deposit lists about 23,000 reagents; this is an unselected part of those with a known target gene and a result. 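Extra replicates exist only for a retested subset of genes; insulin dose and duration not given; both raised and lowered dpERK matter.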 The numbers tell different reagents against one gene apart. Names joined by + are all predicted targets of the reagent. The record does not give: the amount of reagent, the time to read-out.

- Aim: 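Fly genes whose loss alters ERK activation after insulin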 (primary screen)
- Cell system: Drosophila S2R+ haemocyte-like cells expressing YFP-tagged ERK (Rolled)
- Knock-down reagent: long dsRNA against Drosophila genes
- Treatment: insulin stimulation versus unstimulated cells; dose and duration not given
- Measurement: 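Per-plate z-scores of phospho-ERK immunostaining normalised to YFP-tagged ERK, measured with and without insulin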
- Direction: replicate 1, z-score of dpERK with insulin and replicate 2, z-score of dpERK with insulin: higher = more active ERK per ERK-YFP after insulin; replicate 1, z-score of dpERK under basal conditions: higher = more basal active ERK per ERK-YFP; replicate 1, z-score of ERK-YFP with insulin: higher = more YFP-tagged ERK signal

predicted target | dsRNA no. | replicate 1, z-score of dpERK with insulin | replicate 2, z-score of dpERK with insulin | replicate 1, z-score of dpERK under basal conditions | replicate 1, z-score of ERK-YFP with insulin
CG9175 | 1 | 0.12 | 0.36 | -0.43 | -0.06
mab-21 | 1 | 1.51 | 0.62 | 0.36 | -0.19
CG11000 | 1 | 0.47 | 1.58 | 0.76 | 0.7
CG11000 | 2 | -0.11 | -0.18 | -0.55 | -0.11
CG3687 | 1 | 0.42 | -0.65 | 1.3 | 0.09
CG4459 | 1 | 0.55 | -0.02 | 0.23 | 0.26
CG4984 + CG4975 | 1 | 0.06 | 0.3 | -0.74 | 0.21
CG4984 + CG4975 | 2 | 0.24 | 0.3 | -0.01 | 0.49
Hsc70-5 | 1 | 0.22 | 0.07 | -2 | -0.03
Diedel3 | 1 | -1.07 | 0.17 | -0.39 | 0.68
Pde6 | 1 | -0.93 | -0.71 | -0.31 | 0.21
Pde6 | 2 | -0.03 | -1.6 | 0.37 | 0.55
Pde6 | 3 | 0.26 | 0.26 | -0.6 | 0.33
CG43316 | 1 | -0.06 | 0.22 | -0.07 | 0.44
CG10589 | 1 | 0.01 | -0.13 | 0.28 | -0.01
CG30403 | 1 | 0.31 | 0.95 | 0.56 | 0.52
CG32196 | 1 | -0.76 | -0.26 | -0.74 | 0.58
CG9926 | 1 | 0.86 | 0.5 | -0.32 | -0.43
CG30039 | 1 | -0.3 | 0.28 | -0.43 | 0.92
CG7544 | 1 | 0.16 | 1.02 | -0.48 | 0.35
KFase | 1 | 0.39 | -0.51 | 0.84 | -0.36
dj | 1 | 0.29 | -0.37 | -1.52 | -0.94
GstO2 | 1 | -0.64 | -0.44 | -0.74 | -0.07
CG3634 | 1 | 0.8 | 0.45 | 1.22 | 0.56
PMP34 | 1 | -0.16 | 1.44 | 0.82 | -0.13
CG3091 | 1 | 0 | 1.68 | 2.2 | 0
MBD-like | 1 | -0.74 | -0.14 | 0.11 | 0.61
Nepl9 | 1 | -0.65 | -0.29 | -0.18 | 0.15
FoxP | 1 | -0.27 | -0.25 | -0.58 | 0.31
FoxP | 2 | 0.02 | -1.54 | -0.14 | -0.79
CG7646 | 1 | -0.26 | -0.26 | 0.55 | 0.99
TwdlH | 1 | 0.68 | 0 | 2.85 | 0.4
CG10853 | 1 | 2.02 | 1.78 | 0.04 | 1.46

No new results follow: an excerpt of the list.
predicted target | dsRNA no. | replicate 1, z-score of dpERK with insulin | replicate 2, z-score of dpERK with insulin | replicate 1, z-score of dpERK under basal conditions | replicate 1, z-score of ERK-YFP with insulin
Pde6 | 1 | -0.93 | -0.71 | -0.31 | 0.21
Pde6 | 2 | -0.03 | -1.6 | 0.37 | 0.55
Pde6 | 3 | 0.26 | 0.26 | -0.6 | 0.33
CG43316 | 1 | -0.06 | 0.22 | -0.07 | 0.44
CG10589 | 1 | 0.01 | -0.13 | 0.28 | -0.01
CG30403 | 1 | 0.31 | 0.95 | 0.56 | 0.52
CG32196 | 1 | -0.76 | -0.26 | -0.74 | 0.58
CG9926 | 1 | 0.86 | 0.5 | -0.32 | -0.43
CG30039 | 1 | -0.3 | 0.28 | -0.43 | 0.92

Additional records follow:
predicted target | dsRNA no. | replicate 1, z-score of dpERK with insulin | replicate 2, z-score of dpERK with insulin | replicate 1, z-score of dpERK under basal conditions | replicate 1, z-score of ERK-YFP with insulin
CG6418 | 1 | -0.73 | -0.27 | 1.01 | 1.82
psd | 1 | 0.26 | 0.91 | -0.05 | 0.51
CG11159 | 1 | 0.67 | -0.1 | -0.33 | 0.37
CG31055 | 1 | 0.09 | 0.39 | 0.14 | 0.16
CG32537 | 1 | 0.49 | 0.79 | 0.93 | 1.33
CG2202 | 1 | 1.67 | 0.93 | -1.07 | -5.49
Hs2st | 1 | 0.15 | 0.1 | -1.06 | 0.09
Ugt316A1 | 1 | -0.86 | -0.12 | 0.29 | 0.03
OdsH | 1 | 1.43 | 0.61 | 1.05 | -0.66
phol | 1 | 1.36 | 2.1 | -0.34 | -0.61
CG32119 | 1 | 0.14 | 0.42 | 0.3 | -0.02
CG32119 | 2 | 0.32 | -0.08 | 0.06 | 0.03
CG12964 | 1 | 1.76 | -1.4 | -2.64 | 1.75
CG15701 | 1 | -0.92 | -0.17 | -0.01 | -0.06
Ir47a | 1 | 0.11 | 0.1 | -0.32 | 0.35
CG9861 | 1 | -0.04 | 0.47 | 0.26 | 0.43
Nbr | 1 | -0.23 | -0.14 | -1.32 | 0.08
CG40485 | 1 | -1.23 | -0.4 | -1.27 | -0.42
CG14397 | 1 | 0.25 | -0.99 | -0.59 | 0.24
CG13751 | 1 | 0.08 | 0.17 | -0.21 | -0.06
CG13725 | 1 | -0.66 | 0.41 | 0 | 0.15
Arp5 | 1 | 0.54 | -0.59 | -0.52 | 0.6
CG33702 | 1 | 0.24 | -0.16 | -0.18 | 0.35
CG34461 | 1 | 1.1 | 0.12 | -0.54 | 0.5
